Data published in patent US20190000969A1.
Changes are numbered by the printed parent chain. These are yes or no findings as the source states them, for the method shown. Some entries that bind do so weakly or less than the wild type. Sequences can lack the tags named with a protein.

T1: hUPK1B(108-229)-Fc, second extracellular domain of human UPK1B fused to human IgG2 Fc (human) (UniProt O75841)
T1 sequence: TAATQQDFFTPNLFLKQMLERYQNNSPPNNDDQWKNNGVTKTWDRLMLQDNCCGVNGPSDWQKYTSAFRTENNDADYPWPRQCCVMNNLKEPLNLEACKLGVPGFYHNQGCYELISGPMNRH

B1: SC115.7 (antibody, V domains shown)
VH: EVQLQQSGAELVRPGASVKLSCTASGFNIKDSFIHWVKKRPEEGLEWIGWIDPEDGETKYAPKFQDKATITADTSSNTAYLQLSSLTSEDTAIYYCARRERFYGIYYALDYWGQGTSVTVSS
VL: DIVMTQSPSSLTVTAGEKVTMSCKSSQSLLNSGNQKNYLTWYQQKLGQPPKLLIYWASTRESGVPDRFTGSGSGTDFTLTISSVQAEDLAVYYCQNDYSNPFTFGSGTKLEIK
B2: SC115.18 (antibody, V domains shown)
VH: QVQLQQPGAELVRPGSSVKLSCKASGYTFTSYWMHWVKQRPMQGLEWIGNIDPSDSEIYYNQKFKDKATLTVDKSSGTAYMQLSSLTSEDSAVYYCARRSGSRDYYGMDDWGQGTSVTVSS
VL: B1 VL with S22R, L46P, Y55S, E61D, G74R, T78I, N100Y, F102L, S106A, I112L

Legend:
[1] = target: T1, hUPK1B(108-229)-Fc, second extracellular domain of human UPK1B fused to human IgG2 Fc (human); assay: IHC competition: antibody premixed with 5x molar excess of hUPK1B-Fc, then applied to FFPE sections of UPK1B-expressing HEK293T cells
[2] = target: T1, hUPK1B(108-229)-Fc, second extracellular domain of human UPK1B fused to human IgG2 Fc (human); assay: IHC competition: SC115.7 mixed with 5x molar excess of hUPK1B-Fc before staining of FFPE sections
[3] = target: T1, hUPK1B(108-229)-Fc, second extracellular domain of human UPK1B fused to human IgG2 Fc (human); assay: MSD electrochemiluminescence sandwich ELISA; standard curve with purified recombinant hUPK1B-Fc

| Binder | binding [1] | binding [2] | binding [3] |
| --- | --- | --- | --- |
| B1 | binds | binds |  |
| B2 |  |  | binds |
